Experimental data from article PMC8242016.
No constants are given. Whether binding was seen depends on the method and setting. In cells and extracts the contact can be indirect. Some results given as binding are weak or reduced against the parent protein; the word gives no strength. For some assays here: Where a sequence is shown, tags or fusion partners need not be part of it.

T1: HA-tagged X. tropicalis JunB (X. tropicalis) (UniProt Q28IY7)
T1 sequence: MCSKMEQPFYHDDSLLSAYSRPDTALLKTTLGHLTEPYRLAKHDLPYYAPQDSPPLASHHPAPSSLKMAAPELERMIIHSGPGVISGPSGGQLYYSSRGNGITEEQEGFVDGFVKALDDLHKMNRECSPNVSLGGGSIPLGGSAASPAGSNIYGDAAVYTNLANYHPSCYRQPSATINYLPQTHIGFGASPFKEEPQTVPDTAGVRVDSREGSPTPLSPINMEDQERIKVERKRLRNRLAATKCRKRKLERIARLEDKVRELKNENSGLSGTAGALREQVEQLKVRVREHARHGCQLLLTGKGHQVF

T2: JunB (mouse, endogenous) (mouse (endogenous in neonatal mouse heart)) (UniProt P09450)
T2 sequence: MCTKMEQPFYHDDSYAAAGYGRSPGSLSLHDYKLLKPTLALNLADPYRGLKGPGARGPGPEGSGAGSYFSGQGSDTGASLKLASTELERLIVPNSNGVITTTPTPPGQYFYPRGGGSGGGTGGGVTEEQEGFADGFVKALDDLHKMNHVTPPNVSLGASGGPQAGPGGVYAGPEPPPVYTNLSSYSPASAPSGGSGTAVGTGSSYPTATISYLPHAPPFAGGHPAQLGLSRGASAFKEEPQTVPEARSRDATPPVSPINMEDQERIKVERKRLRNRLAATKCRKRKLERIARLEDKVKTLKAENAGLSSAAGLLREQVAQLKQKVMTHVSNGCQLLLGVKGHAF


Columns and labels:
[1] = target: T1, HA-tagged X. tropicalis JunB (X. tropicalis); experiment: co-IP; lysate of X. tropicalis embryos co-injected with Flag-xFosl1 and HA-xJunB plasmids (48 h); precipitated overnight at 4 °C with anti-Flag or anti-HA, magnetic beads, IgG as negative control; western blotting
[2] = target: T2, JunB (mouse, endogenous) (mouse (endogenous in neonatal mouse heart)); experiment: co-IP; endogenous proteins from neonatal mouse heart, regenerating (apex resection) compared with quiescent; anti-Fosl1 and anti-JunB antibodies; western blotting

binding [1] | binding [2] | Binder
binds |  | Flag-tagged X. tropicalis Fosl1 (protein, UniProt F7CZ65 1-298) MYRDFTGAFPQPDSGCSSHGLRNSGSSPILGTSGMGHSVRLNPPPEDAQQKYPVHTSSGQFIPTLNAITSSQDLNWMIQPSVRPLNLPPYQSPRHGVIRNMGGVLSMGRRRNGEHLSPEEEERRRVRRERNKVAAAKCRNRRKELTDYLQAETDKLEEEKSSLQKEIAELQKQKDKLELILEAHQPICKFPDSHHNMQQVDSSRLVKKEPHEESPRGPKVNLPRIELSDTILEPEALHTPTLMKTPSITPFTPNLVFTYPGPQESCSTAHRRLSRSSSSGSSGEQSPCSLSSNSLLTL
 | binds | Fosl1 (mouse, endogenous) (protein, UniProt P48755 1-273) MYRDYGEPGPSSGAGSPYGRPAQPPQAQAQTAQQQKFHLVPSIDSSSQELHWMVQPHFLGPTGYPRPLAYPQYSPPQPRPGVIRALGPPPGVRRRPCEQISPEEEERRRVRRERNKLAAAKCRNRRKELTDFLQAETDKLEDEKSGLQREIEELQKQKERLELVLEAHRPICKIPEGDKKDPGGSGSTSGASSPPAPGRPVPCISLSPGPVLEPEALHTPTLMTTPSLTPFTPSLVFTYPSTPEPCSSAHRKSSSSSGDPSSDPLGSPTLLAL
